Columns and labels:
Sprague Dawley rats [1] = assay: Palatability (no-choice) trial, peanut butter bait; format: in vivo, rat (Sprague Dawley); settings: for Bait consumed (g) (of 5 g): n = 6, male rats only, Table 10
From the text: In the palatability trials, Sprague Dawley rats (ca. 250 g) were presented with 1% w/w compound (n=6) or 0.5% w/w compound (n=5) in a peanut butter bait, following 3 days ‘pre-baiting’ with a peanut butter formulation free of toxicant.

Sprague Dawley rats [2] = assay: Palatability (choice) trial, peanut butter bait; format: in vivo, rat (Sprague Dawley); settings: 2 days
[3] = 1% w/w toxicant in peanut butter bait, n = 6, 3 male and 3 female rats, Table 11
[4] = 1% w/w toxicant in peanut butter bait
[5] = choice of EPA diet (20 g) and bait with 1% w/w toxicant (20 g), n = 12, Table 14
[6] = choice of standard lab pellets (20 g) and bait with 1% w/w toxicant (20 g), n = 12, Table 13
[7] = choice of EPA diet (20 g) and bait with 1% w/w toxicant (20 g), n = 2, Table 15
[8] = 1% w/w toxicant in peanut butter bait, n = 6, 3 male and 3 female rats, Table 12
[9] = 2% w/w toxicant in peanut butter bait, n = 6, Table 12

## CCCCCCCC(=O)OCN1C(=O)C2C3C=C(C(O)(c4ccccc4)c4ccccn4)C(C3=C(c3ccccc3)c3ccccn3)C2C1=O (stereo not drawn) [Compound 10, 5-(α-Hydroxy-α-2-pyridylbenzyl)-N-octanoyloxymethyl-7-(α-2-pyridylbenzylidene)-5-norbornene-2,3-dicarboximide]
Sprague Dawley rats [1]; [3]
  Ave. bait consumed (% of body mass): 0.84 % of body mass
  Bait consumed (g) (of 3 g): 1.65 g
  Maximum toxicant consumed: 64 mg/kg

## O=C(Cc1ccccc1)OCN1C(=O)C2C3C=C(C(O)(c4ccccc4)c4ccccn4)C(C3=C(c3ccccc3)c3ccccn3)C2C1=O (stereo not drawn) [Compound 16, 5-(α-Hydroxy-α-2-pyridylbenzyl)-N-phenylacetyloxymethyl-7-(α-2-pyridylbenzylidene)-5-norbornene-2,3-dicarboximide]
Sprague Dawley rats [1]; [3]
  Ave. bait consumed (% of body mass): 0.53 % of body mass
  Bait consumed (g) (of 3 g): 1.15 g
  Maximum toxicant consumed: 42 mg/kg

## O=C(C=Cc1ccccc1)OCN1C(=O)C2C3C=C(C(O)(c4ccccc4)c4ccccn4)C(C3=C(c3ccccc3)c3ccccn3)C2C1=O (stereo not drawn) [Compound 19, N-Cinnamoyloxymethyl-5-(α-hydroxy-α-2-pyridylbenzyl)-7-(α-2-pyridylbenzylidene)-5-norbornene-2,3-dicarboximide]
Sprague Dawley rats [1]; [4]
  Bait consumed (g) (of 5 g): 4.3 ± 0.2 g
Sprague Dawley rats [2]; [5]
  Ave. Toxic bait consumed: 1.16 g
  Ave. toxic bait consumed (% of body mass): 0.33 % of body mass
  Maximum toxicant consumed: 24 mg/kg
Sprague Dawley rats [2]; [6]
  Ave. Toxic bait consumed: 1.81 g
  Ave. toxic bait consumed (% of body mass): 0.54 % of body mass
  Maximum toxicant consumed: 40 mg/kg

## CCCCCCCC(=O)OCCN1C(=O)C2C3C=C(C(O)(c4ccccc4)c4ccccn4)C(C3=C(c3ccccc3)c3ccccn3)C2C1=O (stereo not drawn) [Compound 111, 5-(α-Hydroxy-α-2-pyridylbenzyl)-N-2′-octanoyloxyethyl-7-(α-2-pyridylbenzylidene)-5-norbornene-2,3-dicarboximide]
Sprague Dawley rats [1]; [3]
  Ave. bait consumed (% of body mass): 0.48 % of body mass
  Bait consumed (g) (of 3 g): 1.00 g
  Maximum toxicant consumed: 40 mg/kg

## CC(=Cc1ccccc1)C(=O)OCCN1C(=O)C2C3C=C(C(O)(c4ccccc4)c4ccccn4)C(C3=C(c3ccccc3)c3ccccn3)C2C1=O (stereo not drawn) [Compound 121, 5-(α-Hydroxy-α-2-pyridylbenzyl)-N-2′-α-methylcinnamoyloxyethyl-7-(α-2-pyridylbenzylidene)-5-norbornene-2,3-dicarboximide]
Sprague Dawley rats [1]; [3]
  Ave. bait consumed (% of body mass): 1.03 % of body mass
  Bait consumed (g) (of 3 g): 2.10 g
  Maximum toxicant consumed: 85 mg/kg
Sprague Dawley rats [2]; [7]
  Ave. Toxic bait consumed: 2.70 g
  Ave. toxic bait consumed (% of body mass): 0.82 % of body mass
  Maximum toxicant consumed: 69 mg/kg

## COc1ccc(C=CC(=O)OCCN2C(=O)C3C4C=C(C(O)(c5ccccc5)c5ccccn5)C(C4=C(c4ccccc4)c4ccccn4)C3C2=O)cc1 (stereo not drawn) [Compound 126, 5-(α-Hydroxy-α-2-pyridylbenzyl)-N-[2′-(4″-methoxycinnamoyloxy)ethyl]-7-(α-2-pyridylbenzylidene)-5-norbornene-2,3-dicarboximide]
Sprague Dawley rats [1]; [4]
  Bait consumed (g) (of 5 g): 4.0 ± 0.4 g
Sprague Dawley rats [2]; [5]
  Ave. Toxic bait consumed: 1.62 g
  Ave. toxic bait consumed (% of body mass): 0.45 % of body mass
  Maximum toxicant consumed: 38 mg/kg
Sprague Dawley rats [2]; [6]
  Ave. Toxic bait consumed: 1.98 g
  Ave. toxic bait consumed (% of body mass): 0.60 % of body mass
  Maximum toxicant consumed: 47 mg/kg

## Cc1ccc(CC(=O)OCN2C(=O)C3C4C=C(C(O)(c5ccccc5)c5ccccn5)C(C4=C(c4ccccc4)c4ccccn4)C3C2=O)cc1 (stereo not drawn) [Compound 324, 5-(α-Hydroxy-α-2-pyridylbenzyl)-N-4-methylphenylacetoyloxymethyl-7-(α-2-pyridylbenzylidene)-5-norbornene-2,3-dicarboximide]
Sprague Dawley rats [1]; [3]
  Ave. bait consumed (% of body mass): 1.01 % of body mass
  Bait consumed (g) (of 3 g): 2.00 g
  Maximum toxicant consumed: 80 mg/kg
Sprague Dawley rats [2]; [7]
  Ave. Toxic bait consumed: 2.92 g
  Ave. toxic bait consumed (% of body mass): 0.90 % of body mass
  Maximum toxicant consumed: 68 mg/kg

## CCc1ccc(C=CC(=O)OCCN2C(=O)C3C4C=C(C(O)(c5ccccc5)c5ccccn5)C(C4=C(c4ccccc4)c4ccccn4)C3C2=O)cc1 (stereo not drawn) [Compound 335, N-[2′-(4″-Ethylcinnamoyloxy)ethyl]-5-(α-hydroxy-α-2-pyridylbenzyl)-7-(α-2-pyridylbenzylidene)-5-norbornene-2,3-dicarboximide]
Sprague Dawley rats [1]; [3]
  Ave. bait consumed (% of body mass): 1.08 % of body mass
  Bait consumed (g) (of 3 g): 2.23 g
  Maximum toxicant consumed: 87 mg/kg
Sprague Dawley rats [2]; [7]
  Ave. Toxic bait consumed: 3.32 g
  Ave. toxic bait consumed (% of body mass): 0.94 % of body mass
  Maximum toxicant consumed: 80 mg/kg

## CCCCCCCCCCCC(=O)NCCN1C(=O)C2C3C=C(C(O)(c4ccccc4)c4ccccn4)C(C3=C(c3ccccc3)c3ccccn3)C2C1=O (stereo not drawn) [Compound 339, N-2′-Dodecanamidoethyl-5-(α-hydroxy-α-2-pyridylbenzyl)-7-(α-2-pyridylbenzylidene)-5-norbornene-2,3-dicarboximide]
Sprague Dawley rats [1]; [8]
  Ave. bait consumed (as % of body mass): 0.89 % of body mass
  Bait consumed (g) (of 3 g): 1.97 g
  Maximum toxicant consumed: 67 mg/kg
Sprague Dawley rats [1]; [9]
  Ave. bait consumed (as % of body mass): 0.34 % of body mass
  Bait consumed (g) (of 3 g): 0.7 g
  Maximum toxicant consumed: 50 mg/kg
Sprague Dawley rats [2]; [7]
  Ave. Toxic bait consumed: 3.71 g
  Ave. toxic bait consumed (% of body mass): 1.23 % of body mass
  Maximum toxicant consumed: 92 mg/kg

## NCc1ccc(C(=O)OCCN2C(=O)C3C4C=C(C(O)(c5ccccc5)c5ccccn5)C(C4=C(c4ccccc4)c4ccccn4)C3C2=O)cc1.O=C(O)C(F)(F)F (stereo not drawn) [Compound 342, N-[2′-(4-Aminomethylbenzoyloxy)ethyl]-5-(α-hydroxy-α-2-pyridylbenzyl)-7-(α-2-pyridylbenzylidene)-5-norbornene-2,3-dicarboximide trifluoroacetate]
Sprague Dawley rats [1]; [3]
  Ave. bait consumed (% of body mass): 0.61 % of body mass
  Bait consumed (g) (of 3 g): 1.37 g
  Maximum toxicant consumed: 46 mg/kg

## CCOc1ccc(C=CC(=O)NCCN2C(=O)C3C4C=C(C(O)(c5ccccc5)c5ccccn5)C(C4=C(c4ccccc4)c4ccccn4)C3C2=O)cc1 (stereo not drawn) [Compound 345, N-[2′-(4″-Ethoxycinnamamido)ethyl]-5-(α-hydroxy-α-2-pyridylbenzyl)-7-(α-2-pyridylbenzylidene)-5-norbornene-2,3-dicarboximide]
Sprague Dawley rats [1]; [8]
  Ave. bait consumed (as % of body mass): 0.54 % of body mass
  Bait consumed (g) (of 3 g): 1.55 g
  Maximum toxicant consumed: 41 mg/kg

## CC(C)c1ccc(C=CC(=O)OCCN2C(=O)C3C4C=C(C(O)(c5ccccc5)c5ccccn5)C(C4=C(c4ccccc4)c4ccccn4)C3C2=O)cc1 (stereo not drawn) [Compound 347, 5-(α-Hydroxy-α-2-pyridylbenzyl)-N-[2′-(4″-isopropylcinnamoyloxy)ethyl]-7-(α-2-pyridylbenzylidene)-5-norbornene-2,3-dicarboximide]
Sprague Dawley rats [1]; [8]
  Ave. bait consumed (as % of body mass): 0.58 % of body mass
  Bait consumed (g) (of 3 g): 1.3 g
  Maximum toxicant consumed: 44 mg/kg

## O=C1NC(=O)C2C3C(C(O)(c4ccccc4)c4ccccn4)=CC(C3=C(c3ccccc3)c3ccccn3)C12 (stereo not drawn) [NRB, 5-(α-Hydroxy-α-2-pyridylbenzyl)-7-(α-2-pyridylbenzylidene)-5-norbornene-2,3-dicarboximide, reference compound]
Sprague Dawley rats [2]; [7]
  Ave. Toxic bait consumed: 2.81 g
  Ave. toxic bait consumed (% of body mass): 0.64 % of body mass
  Maximum toxicant consumed: 64 mg/kg
Sprague Dawley rats [2]; [5]
  Ave. Toxic bait consumed: 1.07 g
  Ave. toxic bait consumed (% of body mass): 0.34 % of body mass
  Maximum toxicant consumed: 33 mg/kg
Sprague Dawley rats [2]; [6]
  Ave. Toxic bait consumed: 1.05 g
  Ave. toxic bait consumed (% of body mass): 0.30 % of body mass
  Maximum toxicant consumed: 31 mg/kg

## O=C1NC(=O)C2C3C(C(O)(c4ccccc4)c4ccccn4)=CC(C3=C(c3ccccc3)c3ccccn3)C12 (stereo not drawn) [endo-NRB, 5-(α-Hydroxy-α-2-pyridylbenzyl)-7-(α-2-pyridylbenzylidene)-5-norbornene-2,3-dicarboximide, reference compound]
Sprague Dawley rats [1]; [3]
  Ave. bait consumed (% of body mass): 0.65 % of body mass
  Bait consumed (g) (of 3 g): 1.30 g
  Maximum toxicant consumed: 66 mg/kg
Sprague Dawley rats [1]; [8]
  Ave. bait consumed (as % of body mass): 0.26 % of body mass
  Bait consumed (g) (of 3 g): 0.37 g
  Maximum toxicant consumed: 26 mg/kg
Sprague Dawley rats [1]; [4]
  Bait consumed (g) (of 5 g): 1.9 ± 0.5 g
